One compound from ChEMBL document CHEMBL4411315, “Discovery of Novel Dual Histone Deacetylase and Mammalian Target of Rapamycin Target Inhibitors as a Promising Strategy for Cancer Therapy” (J Med Chem, 2019) can be followed below.

The assay has as its system Raji. Kind of assay: Antiproliferative activity against human Raji cells after 72 hrs by MTT assay. Format: functional, cell-based. The method in brief:
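Raji cells were kept in RPMI 1640 with 10% FBS and penicillin/streptomycin at 37 °C and 5% CO2. Log-phase cells were plated at 10000-15000 per well and exposed to serial concentrations after 24 h for 72 h. Read-out was MTT for 1-3 h, then 20% SDS overnight and absorbance at 570 nm. IC50 was calculated from growth versus untreated control, as mean ± SEM of at least three independent experiments.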
(Formazan colour is commonly taken as a measure of viable cells.)

The term IC50 denotes the concentration needed to halve the response being measured. Higher therefore signals weaker potency in that assay. In the case of `O=C(CCCCCCC(=O)Nc1ccccc1)NO` [VORINOSTAT], the IC50 is 0.196 µM.
